Experimental findings from article PMC5533585 are described below.

Protein sequences, listed by entry. Tags and fused reporters are not part of them.
UniProt Q9Y2I6: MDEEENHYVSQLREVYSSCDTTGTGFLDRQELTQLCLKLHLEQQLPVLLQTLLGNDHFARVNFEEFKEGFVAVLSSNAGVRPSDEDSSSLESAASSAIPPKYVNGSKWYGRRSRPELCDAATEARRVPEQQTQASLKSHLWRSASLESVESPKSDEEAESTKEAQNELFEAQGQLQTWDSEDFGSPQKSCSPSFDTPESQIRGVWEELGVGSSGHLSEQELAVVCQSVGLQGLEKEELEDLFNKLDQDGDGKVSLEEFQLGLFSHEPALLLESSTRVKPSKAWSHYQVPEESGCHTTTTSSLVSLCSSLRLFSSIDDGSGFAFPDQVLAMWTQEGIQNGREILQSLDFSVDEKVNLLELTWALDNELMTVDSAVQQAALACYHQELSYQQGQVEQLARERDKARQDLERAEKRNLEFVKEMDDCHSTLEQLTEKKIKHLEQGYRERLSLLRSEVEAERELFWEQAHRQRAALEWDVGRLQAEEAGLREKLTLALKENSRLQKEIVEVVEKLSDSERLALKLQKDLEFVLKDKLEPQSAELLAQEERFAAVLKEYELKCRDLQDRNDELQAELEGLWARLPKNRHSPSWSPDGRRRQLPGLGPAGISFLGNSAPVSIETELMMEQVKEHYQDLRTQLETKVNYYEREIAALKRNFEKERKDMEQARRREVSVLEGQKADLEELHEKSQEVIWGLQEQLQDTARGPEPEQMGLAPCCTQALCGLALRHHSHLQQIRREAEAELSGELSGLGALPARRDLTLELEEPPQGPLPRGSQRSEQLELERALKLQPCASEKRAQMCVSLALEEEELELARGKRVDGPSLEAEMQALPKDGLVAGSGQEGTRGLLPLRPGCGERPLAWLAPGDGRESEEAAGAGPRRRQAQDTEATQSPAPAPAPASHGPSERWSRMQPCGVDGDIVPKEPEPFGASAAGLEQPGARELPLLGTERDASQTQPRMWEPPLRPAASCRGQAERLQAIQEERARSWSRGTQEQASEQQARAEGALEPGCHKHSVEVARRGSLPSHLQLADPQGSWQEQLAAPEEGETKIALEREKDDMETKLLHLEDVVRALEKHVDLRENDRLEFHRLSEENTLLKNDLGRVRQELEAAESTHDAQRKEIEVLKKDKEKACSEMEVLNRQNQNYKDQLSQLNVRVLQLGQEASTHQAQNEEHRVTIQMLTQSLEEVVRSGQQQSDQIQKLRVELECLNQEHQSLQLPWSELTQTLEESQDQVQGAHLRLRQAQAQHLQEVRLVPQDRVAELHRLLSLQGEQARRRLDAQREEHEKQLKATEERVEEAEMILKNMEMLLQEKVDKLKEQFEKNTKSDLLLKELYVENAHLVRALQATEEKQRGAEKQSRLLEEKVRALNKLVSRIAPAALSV
UniProt Q8N4C6: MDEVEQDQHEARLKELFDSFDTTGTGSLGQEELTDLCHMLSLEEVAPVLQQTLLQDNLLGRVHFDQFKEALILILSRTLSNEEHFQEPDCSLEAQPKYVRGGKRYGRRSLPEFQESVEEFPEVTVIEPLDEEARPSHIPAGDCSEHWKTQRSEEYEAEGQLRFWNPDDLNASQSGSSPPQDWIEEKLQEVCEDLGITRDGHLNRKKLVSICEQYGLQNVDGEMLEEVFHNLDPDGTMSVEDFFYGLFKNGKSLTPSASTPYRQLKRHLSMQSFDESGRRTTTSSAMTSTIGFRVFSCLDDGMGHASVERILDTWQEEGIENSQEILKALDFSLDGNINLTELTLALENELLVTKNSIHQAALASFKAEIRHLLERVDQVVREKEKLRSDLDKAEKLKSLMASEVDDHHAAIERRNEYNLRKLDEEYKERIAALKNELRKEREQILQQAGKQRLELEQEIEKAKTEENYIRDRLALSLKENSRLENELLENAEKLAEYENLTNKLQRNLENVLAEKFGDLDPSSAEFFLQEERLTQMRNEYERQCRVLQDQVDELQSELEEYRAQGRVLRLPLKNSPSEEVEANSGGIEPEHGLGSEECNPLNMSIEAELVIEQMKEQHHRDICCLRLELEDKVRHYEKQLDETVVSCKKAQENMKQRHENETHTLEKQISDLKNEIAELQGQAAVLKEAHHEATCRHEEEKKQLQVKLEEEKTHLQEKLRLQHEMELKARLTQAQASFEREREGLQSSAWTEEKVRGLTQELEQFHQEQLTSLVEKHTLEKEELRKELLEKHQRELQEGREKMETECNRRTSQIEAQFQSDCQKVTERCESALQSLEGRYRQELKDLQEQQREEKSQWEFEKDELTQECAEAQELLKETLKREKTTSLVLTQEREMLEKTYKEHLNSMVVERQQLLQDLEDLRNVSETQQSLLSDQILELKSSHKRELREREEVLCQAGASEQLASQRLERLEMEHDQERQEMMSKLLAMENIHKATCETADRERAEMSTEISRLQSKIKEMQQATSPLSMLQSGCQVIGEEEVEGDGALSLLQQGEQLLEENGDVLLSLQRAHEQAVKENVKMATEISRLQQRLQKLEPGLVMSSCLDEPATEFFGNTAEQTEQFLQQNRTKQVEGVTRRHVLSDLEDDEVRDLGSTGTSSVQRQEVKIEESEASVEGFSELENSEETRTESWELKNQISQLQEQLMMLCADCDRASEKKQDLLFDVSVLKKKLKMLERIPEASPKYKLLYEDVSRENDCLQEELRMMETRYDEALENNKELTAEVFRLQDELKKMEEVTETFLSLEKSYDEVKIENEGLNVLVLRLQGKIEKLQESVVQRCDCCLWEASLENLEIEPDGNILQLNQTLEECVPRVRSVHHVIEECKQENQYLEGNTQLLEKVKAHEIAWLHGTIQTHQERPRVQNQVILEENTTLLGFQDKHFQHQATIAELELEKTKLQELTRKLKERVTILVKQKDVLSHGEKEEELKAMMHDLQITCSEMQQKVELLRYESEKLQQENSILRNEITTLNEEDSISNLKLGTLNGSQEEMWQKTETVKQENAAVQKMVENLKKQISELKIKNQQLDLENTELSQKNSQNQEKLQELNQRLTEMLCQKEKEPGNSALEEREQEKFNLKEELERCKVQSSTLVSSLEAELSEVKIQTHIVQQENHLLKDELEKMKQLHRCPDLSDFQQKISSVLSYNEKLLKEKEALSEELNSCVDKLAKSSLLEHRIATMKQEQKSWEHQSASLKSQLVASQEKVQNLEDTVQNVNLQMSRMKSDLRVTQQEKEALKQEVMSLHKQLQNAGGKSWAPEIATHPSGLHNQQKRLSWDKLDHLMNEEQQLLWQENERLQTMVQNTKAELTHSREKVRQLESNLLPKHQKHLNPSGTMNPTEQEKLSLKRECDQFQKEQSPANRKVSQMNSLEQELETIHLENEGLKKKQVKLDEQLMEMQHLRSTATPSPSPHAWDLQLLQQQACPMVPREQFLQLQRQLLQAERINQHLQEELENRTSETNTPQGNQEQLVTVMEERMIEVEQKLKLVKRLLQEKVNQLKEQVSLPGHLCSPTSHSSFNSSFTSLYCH
UniProt Q7RTP6: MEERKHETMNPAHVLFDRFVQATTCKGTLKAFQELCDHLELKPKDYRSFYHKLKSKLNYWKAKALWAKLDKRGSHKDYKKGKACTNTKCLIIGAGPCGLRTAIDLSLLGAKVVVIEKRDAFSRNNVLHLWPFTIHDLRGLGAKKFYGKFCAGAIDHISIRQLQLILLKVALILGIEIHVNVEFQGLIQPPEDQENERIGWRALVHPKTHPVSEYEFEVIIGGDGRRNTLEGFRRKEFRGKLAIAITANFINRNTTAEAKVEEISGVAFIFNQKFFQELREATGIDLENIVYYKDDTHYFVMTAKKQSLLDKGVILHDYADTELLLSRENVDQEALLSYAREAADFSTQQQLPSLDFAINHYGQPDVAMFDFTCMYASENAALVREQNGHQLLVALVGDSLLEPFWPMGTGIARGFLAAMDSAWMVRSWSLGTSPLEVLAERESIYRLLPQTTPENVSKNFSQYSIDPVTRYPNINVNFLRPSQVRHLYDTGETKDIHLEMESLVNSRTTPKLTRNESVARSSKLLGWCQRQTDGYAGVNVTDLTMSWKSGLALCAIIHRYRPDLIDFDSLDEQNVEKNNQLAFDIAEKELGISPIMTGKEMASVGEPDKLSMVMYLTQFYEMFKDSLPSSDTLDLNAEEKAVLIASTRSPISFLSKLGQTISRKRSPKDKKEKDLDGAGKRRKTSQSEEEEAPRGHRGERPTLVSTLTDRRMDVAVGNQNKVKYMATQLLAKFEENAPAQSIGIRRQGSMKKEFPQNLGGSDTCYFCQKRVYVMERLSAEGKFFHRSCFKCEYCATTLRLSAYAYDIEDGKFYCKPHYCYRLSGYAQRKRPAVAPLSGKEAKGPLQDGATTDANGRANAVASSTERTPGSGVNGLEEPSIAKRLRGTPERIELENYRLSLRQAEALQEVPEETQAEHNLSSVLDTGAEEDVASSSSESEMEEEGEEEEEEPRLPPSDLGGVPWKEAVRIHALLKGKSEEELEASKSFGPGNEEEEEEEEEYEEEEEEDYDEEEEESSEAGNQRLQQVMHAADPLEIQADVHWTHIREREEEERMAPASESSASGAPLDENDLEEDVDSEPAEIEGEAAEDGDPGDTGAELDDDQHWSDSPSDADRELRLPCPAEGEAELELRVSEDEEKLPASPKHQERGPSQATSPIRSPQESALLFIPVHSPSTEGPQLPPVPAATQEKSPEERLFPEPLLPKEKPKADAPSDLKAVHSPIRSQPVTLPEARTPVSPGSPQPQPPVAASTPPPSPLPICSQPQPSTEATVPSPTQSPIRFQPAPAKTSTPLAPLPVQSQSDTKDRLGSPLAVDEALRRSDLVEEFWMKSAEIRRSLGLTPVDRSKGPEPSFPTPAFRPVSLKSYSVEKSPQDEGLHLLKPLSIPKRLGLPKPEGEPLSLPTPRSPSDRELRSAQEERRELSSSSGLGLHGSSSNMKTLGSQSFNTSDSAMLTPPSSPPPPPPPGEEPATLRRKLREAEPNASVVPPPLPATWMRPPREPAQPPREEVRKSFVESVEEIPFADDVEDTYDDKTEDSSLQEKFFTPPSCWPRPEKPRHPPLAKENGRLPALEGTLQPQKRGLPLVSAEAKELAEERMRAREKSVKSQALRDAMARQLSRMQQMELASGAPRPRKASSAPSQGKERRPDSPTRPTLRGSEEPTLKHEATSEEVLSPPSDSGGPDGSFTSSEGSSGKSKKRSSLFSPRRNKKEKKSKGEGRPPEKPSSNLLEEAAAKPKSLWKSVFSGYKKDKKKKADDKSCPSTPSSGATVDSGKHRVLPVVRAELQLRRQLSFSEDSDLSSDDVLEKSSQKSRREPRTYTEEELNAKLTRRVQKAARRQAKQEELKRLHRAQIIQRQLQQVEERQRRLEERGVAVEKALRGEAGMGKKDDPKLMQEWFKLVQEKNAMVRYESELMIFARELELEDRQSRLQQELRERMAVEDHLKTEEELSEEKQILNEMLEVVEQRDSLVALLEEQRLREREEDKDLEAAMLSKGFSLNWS
UniProt Q8TD16: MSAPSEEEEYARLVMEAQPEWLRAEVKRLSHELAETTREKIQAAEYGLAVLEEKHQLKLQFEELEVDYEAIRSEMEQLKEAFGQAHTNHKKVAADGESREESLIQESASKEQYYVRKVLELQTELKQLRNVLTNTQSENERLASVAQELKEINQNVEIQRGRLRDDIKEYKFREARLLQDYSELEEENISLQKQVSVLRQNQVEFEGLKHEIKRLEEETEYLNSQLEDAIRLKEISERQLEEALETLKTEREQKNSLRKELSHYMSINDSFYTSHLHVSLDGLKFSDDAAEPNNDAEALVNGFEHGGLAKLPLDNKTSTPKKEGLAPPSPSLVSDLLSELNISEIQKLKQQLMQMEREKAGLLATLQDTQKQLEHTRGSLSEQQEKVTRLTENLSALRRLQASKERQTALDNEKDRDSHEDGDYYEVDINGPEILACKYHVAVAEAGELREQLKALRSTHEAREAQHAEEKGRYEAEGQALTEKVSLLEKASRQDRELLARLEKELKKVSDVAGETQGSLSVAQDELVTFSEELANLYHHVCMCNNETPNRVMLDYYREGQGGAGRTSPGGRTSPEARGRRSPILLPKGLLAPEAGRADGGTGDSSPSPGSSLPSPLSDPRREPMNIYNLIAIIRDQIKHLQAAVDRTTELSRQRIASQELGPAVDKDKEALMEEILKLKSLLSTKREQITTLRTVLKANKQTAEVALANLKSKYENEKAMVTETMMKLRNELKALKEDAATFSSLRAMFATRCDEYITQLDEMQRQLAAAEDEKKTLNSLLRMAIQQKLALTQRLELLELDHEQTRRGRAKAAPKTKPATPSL

What all share (test): proximity labelling; BioID in living stable HEK-293 cells, 50 µM biotin for 16 hr; lysis in RIPA buffer; streptavidin beads; MS/MS; hits >3-fold enriched over a BioID alone control
The target of one assay is NINL-BioID (human) (UniProt Q9Y2I6).
Assay [1] concerns the target T1, BICD1 tagged with BioID (BICD1 datasets; N- or C-terminal fusion not told) (human) (UniProt Q96G01).
T1 sequence: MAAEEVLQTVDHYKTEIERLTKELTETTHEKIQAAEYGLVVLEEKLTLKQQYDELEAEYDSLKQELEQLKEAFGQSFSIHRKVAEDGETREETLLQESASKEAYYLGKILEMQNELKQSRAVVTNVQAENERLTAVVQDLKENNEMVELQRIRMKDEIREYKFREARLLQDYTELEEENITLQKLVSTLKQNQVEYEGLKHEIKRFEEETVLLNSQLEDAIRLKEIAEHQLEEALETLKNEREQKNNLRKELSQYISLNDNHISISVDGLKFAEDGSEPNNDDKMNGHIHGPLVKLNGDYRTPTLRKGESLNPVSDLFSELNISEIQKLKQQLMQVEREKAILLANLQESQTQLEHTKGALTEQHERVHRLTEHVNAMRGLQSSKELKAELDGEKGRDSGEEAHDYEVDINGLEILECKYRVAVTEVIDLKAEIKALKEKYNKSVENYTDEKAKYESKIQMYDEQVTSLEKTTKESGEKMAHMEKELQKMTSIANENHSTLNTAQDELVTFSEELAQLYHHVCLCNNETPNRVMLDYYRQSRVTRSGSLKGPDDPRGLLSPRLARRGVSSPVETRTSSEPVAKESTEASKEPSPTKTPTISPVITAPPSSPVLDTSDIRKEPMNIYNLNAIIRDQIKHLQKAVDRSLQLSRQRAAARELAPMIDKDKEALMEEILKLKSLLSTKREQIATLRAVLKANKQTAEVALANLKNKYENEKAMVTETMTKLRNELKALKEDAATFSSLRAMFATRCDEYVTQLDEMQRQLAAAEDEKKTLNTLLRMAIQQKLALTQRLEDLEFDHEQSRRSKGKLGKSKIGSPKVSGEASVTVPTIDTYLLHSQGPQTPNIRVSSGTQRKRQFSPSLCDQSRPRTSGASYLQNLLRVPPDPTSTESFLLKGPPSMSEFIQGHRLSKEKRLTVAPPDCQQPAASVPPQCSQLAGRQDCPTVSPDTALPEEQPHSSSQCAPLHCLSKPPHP

In assay [2] the target is NINL tagged with BioID (NINL datasets; N- or C-terminal fusion not told) (human) (UniProt Q9Y2I6).
Assay [3] deals with T2, HOOK3-BioID-3×FLAG (human) (UniProt Q86VS8).
T2 sequence: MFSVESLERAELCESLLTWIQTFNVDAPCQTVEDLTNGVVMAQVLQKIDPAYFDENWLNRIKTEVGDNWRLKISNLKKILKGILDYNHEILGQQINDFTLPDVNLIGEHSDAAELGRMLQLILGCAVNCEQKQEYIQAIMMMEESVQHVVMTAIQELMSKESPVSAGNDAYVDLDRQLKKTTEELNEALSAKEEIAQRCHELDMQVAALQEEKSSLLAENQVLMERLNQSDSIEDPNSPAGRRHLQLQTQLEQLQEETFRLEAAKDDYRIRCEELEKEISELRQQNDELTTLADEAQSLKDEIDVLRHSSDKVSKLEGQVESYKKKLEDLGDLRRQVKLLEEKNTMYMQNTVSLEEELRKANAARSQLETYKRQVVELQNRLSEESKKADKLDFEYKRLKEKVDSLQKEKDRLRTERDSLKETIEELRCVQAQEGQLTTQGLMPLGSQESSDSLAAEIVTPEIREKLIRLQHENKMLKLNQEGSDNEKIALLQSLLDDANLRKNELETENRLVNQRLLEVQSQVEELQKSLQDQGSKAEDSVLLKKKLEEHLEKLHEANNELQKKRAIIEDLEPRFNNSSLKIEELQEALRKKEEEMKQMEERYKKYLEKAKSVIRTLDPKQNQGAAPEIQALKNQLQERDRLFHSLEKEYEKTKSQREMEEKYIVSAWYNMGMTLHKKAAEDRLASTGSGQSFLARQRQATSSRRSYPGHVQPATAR

In assay [4] the target is NIN tagged with BioID (NIN datasets; N- or C-terminal fusion not told) (human) (UniProt Q8N4C6).

Results are given in words; binding and its absence hold for the method and conditions named. In cells and extracts the contact can be indirect. A yes stands for co-enrichment or nearness to the bait. Other partners may have been found. For part of these data: A no says only that the protein was not detected with the bait. For part of these data: Tags and fused reporters may be left off the sequences shown.

With MICAL3 (from UniProt Q7RTP6 1-2002), the binding result in the assay with NINL-BioID (human) is recorded as “binds”.
Turning to BICD2 (from UniProt Q8TD16 1-824), in assay [1], the binding entry is “binds”.
In the case of ninein (from UniProt Q8N4C6 1-2090), the binding result in assay [2] is “no binding”.
As to KLC2 (from UniProt Q9H0B6 1-622), in assay [3], the binding result was “binds”.
Turning to “ninein-like (from UniProt Q9Y2I6 1-1382)”, the binding result in assay [4] was “no binding”.
For the substance KLC4 (from UniProt Q9NSK0 1-619), in assay [3], the binding entry is on record as “binds”.
